These results are taken from publication PMC4411306, “Osmosensing and scaffolding functions of the oligomeric four-transmembrane domain osmosensor Sho1” (Nature Communications, 2015).

Chains of the proteins cited; added tags and fusions are not shown.
UniProt P40073: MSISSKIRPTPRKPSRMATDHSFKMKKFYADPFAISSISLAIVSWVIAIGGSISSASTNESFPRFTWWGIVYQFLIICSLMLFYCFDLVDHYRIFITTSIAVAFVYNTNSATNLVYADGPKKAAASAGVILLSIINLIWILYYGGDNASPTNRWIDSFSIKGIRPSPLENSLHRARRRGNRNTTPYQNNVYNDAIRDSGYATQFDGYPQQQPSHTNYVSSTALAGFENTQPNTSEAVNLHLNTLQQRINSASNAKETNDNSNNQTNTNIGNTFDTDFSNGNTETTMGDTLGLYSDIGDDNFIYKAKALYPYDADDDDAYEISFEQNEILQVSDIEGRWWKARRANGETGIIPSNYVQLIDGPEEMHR

Results are given in words; binding and its absence hold for the method and conditions named. In cells and extracts the contact can be indirect. For part of these data: A result given as binding can be weak or reduced; the word gives no strength. For part of these data: Tags and fused reporters may be left off the sequences shown.

The target in assay [1] is GST-Sho1 (Saccharomyces cerevisiae) (UniProt P40073). In words: co-IP; GST-Sho1 derivative and Opy2-GFP derivative co-expressed (GAL1 promoter) in TM257; lysate in Buffer A with a mild detergent (0.3% Brij-35; digitonin, Brij 97 or Brij L23); GST-Sho1 precipitated with glutathione Sepharose, Opy2-GFP probed with anti-GFP.
In assay [2] the target is Hkr1ΔSTR-HA (Saccharomyces cerevisiae). Kind of assay: co-IP; Hkr1ΔSTR-HA and Opy2-GFP constructs expressed in TM257 or QG158; lysate in Buffer A with 1% digitonin; Hkr1ΔSTR-HA immunoprecipitated, Opy2-GFP detected by immunoblotting. For orientation: A western blot detects proteins with antibodies after separation by electrophoresis.
For assay [3], the target named is GST-Ste50ΔSB (Saccharomyces cerevisiae). In words: co-IP; GST-Ste50 derivative and HA-Ste11ΔC co-expressed (GAL1 promoter) in yeast KY594-1; lysate in Buffer A with 0.2% Triton-X-100; GST-Ste50 precipitated with glutathione Sepharose, HA-Ste11ΔC probed with anti-HA.

Take Opy2-I100D-GFP (from UniProt Q06810): the binding result in assay [1] is “no binding”.

B1: Opy2-GFP (protein, UniProt Q06810 1-360)
chain: MSSSSKASASSSLSSTATSSTSATRGSDGCVVCDSTASCPVCASGEYCVMTSLTCDKCPSTYCAKQSDSQLSSLSSSSSSSSSSNSNEKTSLIVGFTVGIVGGAMLIALVALYFINKRYWKPKRQKNKALKLEEASQSYGNEEEYFDDEDDDDEDDEDDGGMRKDESHTLFNTSLVPPTLNVPGNRSSASTTRTRASNILPIAYIPGVTSGLSTDKLQSKLRSSSKRQNAAGDIRSHITLGSSILDGLDDEDDEHNQVLNKDADDNLITAIRAKPKLVQIAEEESDKEIQDLDVIEEQTEADDLSHMAKSEASHGNNDEDDDEEGSFILDLEIPESIRESTQGSRTESPFEDKFEIHDER
On to B1, for which, in assay [2], the binding result is “binds”.

B2: HA-Ste11ΔC (domain or fragment, UniProt P23561 1-413)
chain: MEQTQTAEGTDLLIGDEKTNDLPFVQLFLEEIGCTQYLDSFIQCNLVTEEEIKYLDKDILIALGVNKIGDRLKILRKSKSFQRDKRIEQVNRLKNLMEKVSSLSTATLSMNSELIPEKHCVIFILNDGSAKKVNVNGCFNADSIKKRLIRRLPHELLATNSNGEVTKMVQDYDVFVLDYTKNVLHLLYDVELVTICHANDRVEKNRLIFVSKDQTPSDKAISTSKKLYLRTLSALSQVGPSSSNLLAQNKGISHNNAEGKLRIDNTEKDRIRQIFNQRPPSEFISTNLAGYFPHTDMKRLQKTMRESFRHSARLSIAQRRPLSAESNNIGDILLKHSNAVDMALLQGLDQTRLSSKLDTTKIPKLAHKRPEDNDAISNQLELLSVESGEEEDHDFFGEDSDIVSLPTKIATPK
As to B2, the binding entry in assay [3] is “binds”.
